The whole screen tested about 360,000 compounds, of which about 10,000 (2.8%) were called active. This list was built around the results that the source calls inconclusive (neither active nor inactive); the mix of calls is not that of the screen. Calls follow the shape of the dose curve; as a rule, active = well fitted inhibition curve with a large enough effect; inconclusive = small, poorly fitted or top-dose-only effect; inactive = flat fitted curve, though single readings scatter. Potencies of inconclusive entries are doubtful fits and often do not repeat.
What follows are compounds tested against Serine/threonine-protein kinase PLK1 (Homo sapiens) (UniProt P53350) (assay: qHTS for Inhibitors of PLK1-PDB (polo-like kinase 1 - polo-box domain): Primary Screen). Settings: Plk1 PBD binding of FITC phosphopeptide, fluorescence polarization.
% is scaled to controls: 0 for no effect and ±100 for the full control effect; potency is read from the fitted curve at half-maximal effect.
Also: nearly all actives have a fitted effect of over 65% in size.
For max response, negative = inhibition in this document: series mostly up to about 57 µM.

The chains behind the UniProt entries cited, without tags or fusion partners.
UniProt P53350, whole entry, looked up: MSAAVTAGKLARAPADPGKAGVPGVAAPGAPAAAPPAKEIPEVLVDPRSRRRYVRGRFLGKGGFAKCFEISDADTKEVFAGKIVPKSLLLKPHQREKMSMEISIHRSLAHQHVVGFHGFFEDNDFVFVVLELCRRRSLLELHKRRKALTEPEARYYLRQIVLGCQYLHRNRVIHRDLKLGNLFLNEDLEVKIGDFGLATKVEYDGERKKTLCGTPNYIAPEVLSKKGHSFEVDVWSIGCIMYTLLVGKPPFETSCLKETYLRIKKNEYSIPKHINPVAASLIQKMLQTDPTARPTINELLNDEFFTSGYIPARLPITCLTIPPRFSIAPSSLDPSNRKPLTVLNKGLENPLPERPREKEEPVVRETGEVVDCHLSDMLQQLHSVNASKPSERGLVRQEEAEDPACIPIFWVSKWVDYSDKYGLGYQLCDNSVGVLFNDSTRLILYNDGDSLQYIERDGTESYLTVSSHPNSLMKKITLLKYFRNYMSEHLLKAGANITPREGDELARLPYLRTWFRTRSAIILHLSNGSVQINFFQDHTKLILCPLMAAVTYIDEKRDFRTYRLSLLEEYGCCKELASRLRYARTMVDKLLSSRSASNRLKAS

Compound	Potency	max response, negative = inhibition
COc1cc(OC)cc(C(=O)N2CCN(c3ccccc3F)CC2)c1	inconclusive: 11.9 µM [inhibitor, partial curve]	–
CCOC(=O)c1c(-c2cccs2)csc1NC(=O)CSc1ncn[nH]1	inconclusive: 29.9 µM [inhibitor, partial curve]	–
Cc1cccc(NC(=O)NC(=S)NC(=O)c2ccccc2)c1	inconclusive: 26.7 µM [inhibitor, single point]	–
CC(NC(=O)c1cccs1)C(c1cccs1)N1CCN(c2ccccc2)CC1 (stereo unspecified)	–	inactive: -4.52%
CN1C(CC(=O)Nc2ccc(Cl)cc2Cl)c2ccccc2CC1(C)C (stereo unspecified)	–	inactive: 1.26%
C=CC1=C(C(=O)O)N2C(=O)C(NC(=O)Cc3ccccc3)C2SC1 (stereo unspecified)	active: 26.7 µM	–
COc1cccc(NC(=S)/C(=C(\[O-])c2ccc([N+](=O)[O-])cc2)[n+]2ccccc2)c1	active: 7.52 µM	–
CCC(C)c1ccc(NC(=S)NCc2ccccn2)cc1 (stereo unspecified)	inconclusive: 29.9 µM [inhibitor, single point]	–
CCc1ccc(C(=O)C(C)OC(=O)c2cccc(S(=O)(=O)N3CCOCC3)c2)cc1 (stereo unspecified)	–	inactive: 0.904%
CC1C(=O)N(Cc2cn(Cc3ccco3)nn2)CCS(=O)(=O)N1Cc1ccc(-c2cccnc2)cc1 (stereo unspecified)	inconclusive: 21.2 µM [inhibitor, partial curve]	–
Cc1ccc(N=C2C(=S)N(c3ccc(C)cc3)C(=N)N2/N=C/c2ccc(Cl)cc2)cc1	inconclusive: 26.7 µM [inhibitor, partial curve]	–
CC1(C)C(=O)Nc2ccccc2N1C(=O)COC(=O)c1cccnc1	–	inactive: -12.6%
CN(C)c1nc(=NCc2ccco2)ss1	active: 2.67 µM	–
COc1ccc(/C=N/NC(=O)c2cc(C)n(-c3ccccc3)c2C)cc1OC	inconclusive: 21.2 µM [inhibitor, single point]	–
Cc1ncsc1CCC(=O)N1CCCC(C(=O)c2ccc3c(c2)OCO3)C1 (stereo unspecified)	–	inactive: -12.6%
O=C(CSc1ccc2nnc(-c3cccc(F)c3)n2n1)NCC1CCCO1 (stereo unspecified)	inconclusive: 26.7 µM [inhibitor, partial curve]	–
BrC(=C\c1ccccc1)/C=N/Nc1ccc2nncn2n1	inconclusive: 5.97 µM [inhibitor, partial curve]	–
CC1=C(SCc2ccccc2)C(=O)c2ccccc2C1=O	active: 4.74 µM	–
CCn1nc(NS(=O)(=O)c2ccc([N+](=O)[O-])cc2)c2cc3cc(C)ccc3nc21	inconclusive: 26.7 µM [inhibitor, single point]	–
CCn1ncc(Br)c1C(=O)Nc1ccccc1OC	active: 21.2 µM	–
CS(=O)(=O)c1ccc(-c2cnc3c(NC=O)cc(-c4ccsc4)cn23)cc1	inconclusive: 37.7 µM [inhibitor, single point]	–
CCN(CC)C(=O)c1sc2nc(-c3cccs3)cc(-c3ccc(Cl)cc3)c2c1N	inconclusive: 16.8 µM [inhibitor, partial curve]	–
Cc1cc(C)cc(C(=O)NCC(=O)OCC(=O)N2CCCC2)c1	–	inactive: 0.744%
COc1ccc(-c2cc(C(=O)NCCCN3CCOCC3)c3cc(C(C)C)ccc3n2)cc1	inconclusive: 29.9 µM [inhibitor, partial curve]	–

Compound	Potency	max response, negative = inhibition
CCn1c(CC(=O)Nc2ccccc2C)nnc1SCC(=O)NC1CCCC1	–	inactive: -4.49%
Cc1cccnc1CCNC(=O)c1ccc(OC2CCN(Cc3ccccn3)CC2)cc1	–	inactive: -1.81%
CCCCNS(=O)(=O)CCNCc1ccco1	inconclusive: 21.2 µM [inhibitor, single point]	–
CCOC(=O)C(=CNNc1cccc(Cl)c1)C(=O)OCC	active: 9.47 µM	–
CCOC(=O)CC1COCCN1C(=O)c1ccc2oc(Cc3ccccc3)nc2c1 (stereo unspecified)	–	inactive: 2.17%
COc1ccc(C(=O)Nc2ccc(NC(=O)c3cccc(F)c3)cn2)cc1	–	inconclusive: -31.9% [inhibitor]
CCc1c(C(C)S(=O)(=O)c2ccccc2)[nH]c(=O)n1CC (stereo unspecified)	active: 15 µM	–
O=C(NC(=S)Nc1ccc2[nH]c(=O)[nH]c2c1)c1cccc(F)c1	inconclusive: 26.7 µM [inhibitor, partial curve]	–
CCN(C(=O)CN1CCN(Cc2ccccc2)CC1)c1c(N)n(Cc2ccccc2)c(=O)[nH]c1=O	active: 23.8 µM	–
O=C(Cn1cccn1)N1CCCC(N2CCN(c3ccccc3F)CC2)C1 (stereo unspecified)	inconclusive: 33.6 µM [inhibitor, single point]	–
CCOC(=O)c1c(N)nn(C(=O)CC)c1-c1ccccc1	inconclusive: 18.9 µM [inhibitor, partial curve]	–
Brc1ccc(-n2cc(-c3ccccc3)c3c(NN4CCOCC4)ncnc32)cc1	–	inactive: -13.6%
Nc1c(Cl)cc(-c2csc(NC(CO)c3nc4ccccc4n3CCOCCO)n2)cc1Cl (stereo unspecified)	inconclusive: 26.7 µM [inhibitor, partial curve]	–
CCSc1nnc(NC(=O)C2CCCCC2C(=O)O)s1 (stereo unspecified)	inconclusive: 29.9 µM [inhibitor, partial curve]	–
Fc1ccc2[nH]c3c(NCCN4CCOCC4)ncnc3c2c1	inconclusive: 29.9 µM [inhibitor, single point]	–
Cc1noc(NS(=O)(=O)c2ccc(NC(=O)CCCOc3ccc(Cl)cc3Cl)cc2)c1C	–	inconclusive: -30.3% [inhibitor]
O=C(NCc1ccccc1)C(c1ccccc1F)n1c(=O)c(-c2ccco2)nc2ccccc21 (stereo unspecified)	inconclusive: 26.7 µM [inhibitor, single point]	–
Cc1cc(C)n2nc(SCC(=O)Nc3c(C)nn(-c4ccccc4)c3C)nc2n1	inconclusive: 26.7 µM [inhibitor, partial curve]	–
CCOC(=O)COn1c(=O)c(=O)n(OC)c2ccccc21	inconclusive: 29.9 µM [inhibitor, single point]	–
Cc1ccc(C)c(NC(=O)NCc2ccccn2)c1	–	inactive: 6.4%
O=[N+]([O-])c1c(Nc2ccccc2O)cc(Cl)c2nonc12	active: 2.99 µM	–
CC1(C(=O)NS(=O)(=O)c2cccc(Cl)c2)CCN1C(=O)c1ccccc1CCc1ccccc1 (stereo unspecified)	inconclusive: 67 µM [inhibitor, partial curve]	–
Cc1cccc(NC(=O)Nc2c(C)n(C)n(-c3ccccc3)c2=O)c1	active: 23.8 µM	–
CN(C)c1cc[n+](CC(=O)Nc2ccc(OC(F)F)cc2)cc1	–	inactive: -17%

Compound	Potency	max response, negative = inhibition
Clc1ccc(-c2nnc(-c3ccco3)nc2N2CCCCC2)cc1	inconclusive: 23.8 µM [inhibitor, partial curve]	–
Cc1cc(C)n(C(=O)N(c2ccccc2)c2ccccc2)n1	–	inactive: 4.07%
O=C(c1cnn(C(=O)c2ccccc2)c1)c1ccccc1O	inconclusive: 16.8 µM [inhibitor, partial curve]	–
Cn1c(SCC(=O)Nc2nncs2)nnc1C1CC1	–	inconclusive: -37.5% [inhibitor]
COc1ccc(C(=O)Nc2nc3c(s2)Cc2cc(OC)ccc2-3)cc1	inconclusive: 21.2 µM [inhibitor, partial curve]	–
O=C(O)CCCCCCNC(=O)c1cncc(O)c1	inconclusive: 26.7 µM [inhibitor, single point]	–
COc1cccc(C(=O)NCCSc2ccc(F)cc2)c1	inconclusive: 23.8 µM [inhibitor, single point]	–
O=C(NCc1cccc(F)c1)c1cccc2c1C(=O)c1ccc(N3CCCC3)cc1S2(=O)=O	inconclusive: 37.7 µM [inhibitor, single point]	–
CCCCNC(=O)CCCn1c(=O)c2ccccc2n(CC(=O)NCCC2=CCCCC2)c1=O	inconclusive: 26.7 µM [inhibitor, single point]	–
O=C1CSC(=S)N1Cc1cccnc1	inconclusive: 26.7 µM [inhibitor, partial curve]	–
CN1CCC/C1=C1/C(=O)N(c2ccccc2)N=C1NC(=O)Nc1cccc(Cl)c1	active: 3.77 µM	–
CC(C)N(C(=S)Nc1cc(S(=O)(=O)N2CCOCC2)ccc1Cl)c1ccccc1	inconclusive: 37.7 µM [inhibitor, single point]	–
COc1ccc(CCN(/C=C2\Sc3ccccc3C2=O)C(C)=O)cc1OC	–	inconclusive: -30.2% [inhibitor]
COc1ccc(C(CNC(=O)Cn2[nH]c(=O)c3ccccc3c2=O)N2CCCC2)cc1 (stereo unspecified)	inconclusive: 21.2 µM [inhibitor, single point]	–
O=C(CSc1cccc[n+]1[O-])c1cccs1	active: 23.8 µM	–
CC(=O)c1cccc(NC(=O)CSc2ccc(-c3ccco3)nn2)c1	inconclusive: 21.2 µM [inhibitor, single point]	–
COc1ccc2c(c1)CCC(=O)[C@H](O)C[C@H](c1ccccc1)OC2=O	inconclusive: 23.8 µM [inhibitor, single point]	–
CCOc1ccc(/C=C2\CCC(C3CCCC3)C2=O)cc1 (stereo unspecified)	–	inactive: -1.03%
O=C1NC(=Nc2ccc(F)cc2)CS1	inconclusive: 16.8 µM [inhibitor, partial curve]	–
C=CCN1C=C2C(=O)C(C)(OC(=O)c3cnc4ccccc4n3)C(=O)C=C2C=C1/C=C/COC (stereo unspecified)	inconclusive: 37.7 µM [inhibitor, single point]	–
CCOC(=O)c1sc(N/N=C/c2cc(Br)c(O)c(OC)c2)nc1C	inconclusive: 23.8 µM [inhibitor, partial curve]	–
Nc1ccc2nc(-c3ccccn3)[nH]c2c1	–	inactive: -1.46%
COc1cc(C2NC(=O)c3ccccc3O2)cc(OC)c1OC (stereo unspecified)	–	inactive: -1.72%

Pulled by compound from above (three):
Compound	Potency	max response, negative = inhibition
Cc1cc(C)n(C(=O)N(c2ccccc2)c2ccccc2)n1	–	inactive: 4.07%
COc1cccc(C(=O)NCCSc2ccc(F)cc2)c1	inconclusive: 23.8 µM [inhibitor, single point]	–
CCOC(=O)c1c(-c2cccs2)csc1NC(=O)CSc1ncn[nH]1	inconclusive: 29.9 µM [inhibitor, partial curve]	–

Source: PubChem BioAssay AID720504 (National Center for Advancing Translational Sciences (NCATS), 2013)
